# Experimental data: publication doi:10.1101/2023.04.27.538587
# Protein sequences, listed by entry. Tags and fused reporters are not part of them.
# UniProt P25095: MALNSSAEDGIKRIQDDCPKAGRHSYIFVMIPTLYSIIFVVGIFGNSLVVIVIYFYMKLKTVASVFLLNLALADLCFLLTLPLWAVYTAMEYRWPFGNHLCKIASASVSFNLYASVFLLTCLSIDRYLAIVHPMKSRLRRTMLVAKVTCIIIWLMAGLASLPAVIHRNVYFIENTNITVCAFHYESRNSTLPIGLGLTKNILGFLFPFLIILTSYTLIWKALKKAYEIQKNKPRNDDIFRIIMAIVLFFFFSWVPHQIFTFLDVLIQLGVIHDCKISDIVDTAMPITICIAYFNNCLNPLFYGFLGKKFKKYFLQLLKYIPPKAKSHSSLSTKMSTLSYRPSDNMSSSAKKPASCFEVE
# UniProt P28482: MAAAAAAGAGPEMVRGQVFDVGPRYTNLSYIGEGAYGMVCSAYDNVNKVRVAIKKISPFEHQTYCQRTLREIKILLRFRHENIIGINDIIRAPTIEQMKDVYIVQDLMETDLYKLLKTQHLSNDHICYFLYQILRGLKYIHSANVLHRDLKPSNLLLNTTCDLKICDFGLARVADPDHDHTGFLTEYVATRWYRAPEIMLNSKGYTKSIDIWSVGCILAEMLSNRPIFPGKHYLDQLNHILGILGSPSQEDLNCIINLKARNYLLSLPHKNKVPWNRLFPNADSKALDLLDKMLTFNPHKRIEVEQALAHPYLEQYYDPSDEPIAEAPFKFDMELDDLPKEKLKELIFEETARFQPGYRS
# UniProt P29066: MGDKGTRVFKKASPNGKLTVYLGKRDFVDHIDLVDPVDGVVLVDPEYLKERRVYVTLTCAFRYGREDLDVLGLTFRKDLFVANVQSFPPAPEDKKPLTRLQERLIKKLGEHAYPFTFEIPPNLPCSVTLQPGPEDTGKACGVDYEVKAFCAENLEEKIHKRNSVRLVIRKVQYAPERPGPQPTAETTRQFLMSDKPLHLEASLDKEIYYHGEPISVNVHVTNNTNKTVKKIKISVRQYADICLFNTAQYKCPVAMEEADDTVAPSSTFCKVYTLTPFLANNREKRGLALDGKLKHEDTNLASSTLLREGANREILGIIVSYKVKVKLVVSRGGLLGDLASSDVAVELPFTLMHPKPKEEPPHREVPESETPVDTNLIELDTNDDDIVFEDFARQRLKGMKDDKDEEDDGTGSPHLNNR
# UniProt P29067: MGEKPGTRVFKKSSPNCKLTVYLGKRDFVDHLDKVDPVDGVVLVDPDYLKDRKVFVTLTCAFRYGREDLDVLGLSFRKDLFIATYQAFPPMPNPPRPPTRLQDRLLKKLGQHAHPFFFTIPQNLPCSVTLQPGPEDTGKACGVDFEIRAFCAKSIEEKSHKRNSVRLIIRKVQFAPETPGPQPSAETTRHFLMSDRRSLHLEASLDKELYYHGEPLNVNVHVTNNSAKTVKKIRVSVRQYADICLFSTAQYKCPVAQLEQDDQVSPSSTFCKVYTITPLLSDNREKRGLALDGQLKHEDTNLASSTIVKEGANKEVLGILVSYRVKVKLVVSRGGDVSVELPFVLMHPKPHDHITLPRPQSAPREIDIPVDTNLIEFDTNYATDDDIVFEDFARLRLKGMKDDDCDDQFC
# Results are given in words; binding and its absence hold for the method and conditions named. Binding seen in cells or lysates may run through a third protein. Some binding calls cover weakened binding; strength is not graded here.
# Tests used:
# [1] = biological target: AT1R as BRET partner in the AT1R–β-arrestin2–MEK/ERK2 complex formation assay (UniProt P25095); test: FRET or BRET
# [2] = biological target: AT1 angiotensin receptor, RLuc-labeled (AT1R–RLuc) (UniProt P25095); test: FRET or BRET
binding [1],binding [2],Substance
binds,–,FLAG–ERK2–Venus (from UniProt P28482 1-360) (enzyme)
binds,–,Venus–MEK1–FLAG (from UniProt Q02750 1-393) (enzyme)
–,binds,β-arrestin1–Venus (from UniProt P29066 1-418)
–,binds,β-arrestin2–Venus (from UniProt P29067 1-410)
